# Laboratory results as given in publication PMC7807167 (Methods (San Diego, Calif.), 2021).
# How the values were obtained:
# [1] = system: SARS-CoV-2/MT020880; format: cell-based
# [2] = system: SARS-CoV-2/MT020880; format: cell-based; remark: listed apart in the source
structure (smiles),measurement,setting,value
O=C(CCCN1CCC(O)(c2ccc(Cl)cc2)CC1)c1ccc(F)cc1 [Haloperidol],IC50_Viral Entry blocking assay,[1],(Very wide)
same,IC-50_Viral Spread assay,[2],(Very wide)
